# Measurements as given in publication PMC2685004, “Recruitment of a SAP18-HDAC1 Complex into HIV-1 Virions and Its Requirement for Viral Replication” (PLoS Pathogens, 2009).
# B1: GAL4AC fusion of SAP18 fragment (aa 45-153), clone #18829-49.1 (domain or fragment, UniProt O00422 45-153)
# chain: EFSRGNVPSSELQIYTWMDATLKELTSLVKEVYPEARKKGTHFNFAIVFTDVKRPGYRVKEIGSTMSGRKGTDDSMTLQSQKFQIGDYLDIAITPPNRAPPPSGRMRPY
# How the values were obtained:
# [1] = target: LexADB (LexA DNA binding domain) alone; assay: two-hybrid; LexADB fusions as bait, GAL4AC fusion of the HL60 cDNA library clone as prey, in yeast
# LexADB-Laminin = assay: as above
binder,measurement,setting,value
B1,binding,[1],no binding
same,binding,LexADB-Laminin,no binding

# These are yes or no findings as the source states them, for the method shown. Where a sequence is shown, tags or fusion partners need not be part of it.
